Test results from PubChem BioAssay AID330 (DTP/NCI, 2004).
The list does not hold the whole screen: it gathers tests that were run many times, whatever their T/C, doses with no T/C, and many T/C values between a quarter and a half above the control. Further doses and runs are listed elsewhere. T/C gives the treated animals as a percentage of the vehicle group. Some entries give survivors of the animals treated and no T/C: the source files T/C as zero there, which appears to mark a toxic dose or a test without result, not a measured value. Some survivor counts are full or nearly so, which does not show that the dose was tolerated: survival well below the control is almost never listed, so the zero probably covers shortened survival too. Survivors were counted at the toxicity check, usually on the fifth day, unless a day is given; later deaths do not show. Schedules are NCI's codes, read here as Q, the interval in days (D) or hours (H), X, the number of doses. Some doses were run more than once; the results are listed from low to high. For survival time, this PubChem deposit counts one and a half times the control or more as active, and values a quarter to a half above the control carry no call in these data; other NCI protocols may use other cut-offs. Some T/C values are followed by the survivors on the day toxicity was checked, most often the fifth; without a count, all were alive then.

Tested on: P388 leukemia ip, CD2F1 mice, survival T/C
Assay: NCI In Vivo Anticancer Drug Screen. Data for tumor model P388 Leukemia (intraperitoneal) in CD2F1 (CDF1) mice
Conditions: T/C endpoint: median survival time, higher T/C = longer survival
[1] = dose: 25.0 mg/kg/injection, schedule: Q01DX005 (ip), vehicle: saline with Tween-80
[2] = dose: 50.0 mg/kg/injection, schedule: Q01DX005 (ip), vehicle: saline with Tween-80
[3] = dose: 100.0 mg/kg/injection, schedule: Q01DX005 (ip), vehicle: saline with Tween-80
[4] = dose: 200.0 mg/kg/injection, schedule: Q01DX005 (ip), vehicle: saline with Tween-80
[5] = dose: 200.0 mg/kg/injection, schedule: Q01DX005 (ip), vehicle: Klucel (hydroxypropylcellulose) (HPC)
[6] = dose: 120.0 mg/kg/injection, schedule: Q01DX005 (ip), vehicle: Klucel (hydroxypropylcellulose) (HPC)
[7] = dose: 240.0 mg/kg/injection, schedule: Q01DX005 (ip), vehicle: Klucel (hydroxypropylcellulose) (HPC)
[8] = dose: 50.0 mg/kg/injection, schedule: Q01DX009 (ip), vehicle: saline with Tween-80
[9] = dose: 100.0 mg/kg/injection, schedule: Q01DX009 (ip), vehicle: saline with Tween-80
[10] = dose: 200.0 mg/kg/injection, schedule: Q04DX003 (ip), vehicle: saline with Tween-80
[11] = dose: 400.0 mg/kg/injection, schedule: Q04DX003 (ip), vehicle: saline with Tween-80
[12] = dose: 60.0 mg/kg/injection, schedule: Q01DX005 (ip), vehicle: saline with Tween-80

Question: For `C/C(=N\NC(=S)N1CCN(c2ccccn2)CC1)c1nccs1`, which survivor count [1] is on record?
Answer: Its survivor count is 6 of 6.

Question: And the survivor count [2]?
Answer: Its survivor count is 5 of 6.

Question: And the survivor count [3]?
Answer: Its survivor count is 0 of 6.

Question: And the survivor count [4]?
Answer: Its survivor count is 0 of 6.

Question: Which survivor count [5] does the source give for `O=c1[nH]cnc(O)c1C1C=CC=CC=C1` here?
Answer: The survivor count was 1 of 6.

Question: How did the survivor count [6] turn out when `N#C/C(=N\Nc1ccc(F)cc1)C(=O)C1CC1` was run?
Answer: The survivor count was 0 of 6.

Question: And the survivor count [7]?
Answer: The survivor count was 0 of 6.

Question: What does the source list for `CCN(CC)CCCC(Nc1c2ccc(Cl)cc2nc2ccc(OC)cc12)c1ccc(F)cc1` (centres undefined)?
Answer: survivor count [3]: 3 of 5; survivor count [4]: 0 of 5

Question: What does the source list for `N#Cc1ccc(NN=NCCCCCl)cc1`?
Answer: survivor count (dose: 25.0 mg/kg/injection, schedule: Q01DX005 (ip), vehicle: distilled water + Tween-80): 5 of 6; survivor count (dose: 100.0 mg/kg/injection, schedule: Q01DX005 (ip), vehicle: distilled water + Tween-80): 2 of 6; survivor count (dose: 200.0 mg/kg/injection, schedule: Q01DX005 (ip), vehicle: distilled water + Tween-80): 1 of 6

Question: For `N=C(N)c1ccc(/C=C/c2cc3cc(C(=N)N)ccc3o2)cc1`, which survivor count (dose: 100.0 mg/kg/injection, schedule: Q04DX003 (ip), vehicle: suspension in saline) is on record?
Answer: The survivor count was 4 of 6.

Question: What about the survivor count (dose: 200.0 mg/kg/injection, schedule: Q04DX003 (ip), vehicle: suspension in saline) of the same compound?
Answer: The survivor count was 4 of 6.

Question: What about the survivor count (dose: 400.0 mg/kg/injection, schedule: Q04DX003 (ip), vehicle: suspension in saline) of the same compound?
Answer: The survivor count was 0 of 6.

Question: For `Clc1ccc2nc3ccccc3c(SCCCCCCSc3c4ccccc4nc4ccc(Cl)cc34)c2c1`, which survivor count (dose: 30.0 mg/kg/injection, schedule: Q01DX005 (ip), vehicle: Klucel (hydroxypropylcellulose) (HPC)) is on record?
Answer: The survivor count was 6 of 6.

Question: And the survivor count (dose: 60.0 mg/kg/injection, schedule: Q01DX005 (ip), vehicle: Klucel (hydroxypropylcellulose) (HPC))?
Answer: Its survivor count is 6 of 6.

Question: And the survivor count [6]?
Answer: The survivor count was 6 of 6.

Question: What about the survivor count [7] of the same compound?
Answer: The survivor count was 6 of 6.

Question: Which survivor count [5] does the source give for `O=C1c2c(O)cccc2C(C2OC(CO)C(O)C(O)C2O)c2cc(CO)cc(O)c21` (centres undefined) here?
Answer: The survivor count was 1 of 6 and 3 of 6.

Question: Which survivor count (dose: 200.0 mg/kg/injection, schedule: Q01DX005 (ip), vehicle: saline) does the source give for `CCCN(CCNc1cc(OC)cc2cccnc12)C(C)CC` (centres undefined) here?
Answer: The survivor count was 0 of 5.

Question: How did the survivor count [4] turn out when `CCOC(=O)C1CC1c1c(C)c2cc3[nH]c(cc4nc(cc5nc(cc1[nH]2)C(C)=C5CCC(=O)OC)C(CCC(=O)OC)=C4C)c(C)c3C1CC1C(=O)OCC` (centres undefined) was run?
Answer: The survivor count was 6 of 6.

Question: Which results are given for `CCCCCCCCSC1=C(Cl)C(=O)C(OC)=C(OC)C1=O`?
Answer: survivor count [8]: 0 of 6; survivor count [9]: 0 of 6; survivor count (dose: 100.0 mg/kg/injection, schedule: Q04DX002 (ip), vehicle: saline with Tween-80): 1 of 6; survivor count (dose: 200.0 mg/kg/injection, schedule: Q04DX002 (ip), vehicle: saline with Tween-80): 0 of 6; survivor count (dose: 400.0 mg/kg/injection, schedule: Q04DX002 (ip), vehicle: saline with Tween-80): 0 of 6

Question: How did the survivor count (dose: 12.5 mg/kg/injection, schedule: Q01DX005 (ip), vehicle: saline with Tween-80) turn out when `Nc1c(C(=O)NCc2ccccc2)c2nc3c(C(=O)NCc4ccccc4)cccc3oc-2cc1=O` was run?
Answer: Its survivor count is 6 of 6.

Question: What about the survivor count [1] of the same compound?
Answer: The survivor count was 6 of 6.

Question: What about the survivor count [2] of the same compound?
Answer: The survivor count was 6 of 6.

Question: How did the survivor count [4] turn out when `CC(C)(C)[Si](C)(C)CC#C[Si](C)(C)C` was run?
Answer: The survivor count was 0 of 6.

Question: What does the source list for `O=C(CC(=O)C(F)(F)C(F)(F)C(F)(F)F)c1csc2ccccc12`?
Answer: survivor count [10]: 6 of 6; survivor count [11]: 4 of 6

Question: For `C=C1C(=O)OC2(C)C3CCC(C3)C12` (centres undefined), which survivor count (dose: 200.0 mg/kg/injection, schedule: Q01DX009 (ip), vehicle: saline) is on record?
Answer: Its survivor count is 0 of 6.

Question: How did the survivor count (dose: 200.0 mg/kg/injection, schedule: Q01DX009 (ip), vehicle: other) turn out when `CCCCCCCC(=O)NC1CC(O[C@H]2C[C@](O)(C(=O)CO)Cc3c(O)c4c(c(O)c32)C(=O)c2c(OC)cccc2C4=O)OC(C)C1O` (some centres undefined) was run?
Answer: The survivor count was 6 of 6.

Question: With `CCCCCCCCCc1cc(CN2CCCCC2)c(O)c(CN2CCCCC2)c1` as the compound, how does the survivor count (dose: 100.0 mg/kg/injection, schedule: Q01DX009 (ip), vehicle: saline) read?
Answer: Its survivor count is 0 of 6.

Question: Which survivor count (dose: 200.0 mg/kg/injection, schedule: Q01DX001 (ip), vehicle: Klucel (hydroxypropylcellulose) (HPC)) does the source give for `CN(C)c1cc(C(=O)O)nc(C(=O)O)c1` here?
Answer: Its survivor count is 6 of 6.

Question: What about the survivor count (dose: 400.0 mg/kg/injection, schedule: Q01DX001 (ip), vehicle: Klucel (hydroxypropylcellulose) (HPC)) of the same compound?
Answer: The survivor count was 6 of 6.

Question: What does the source list for `CN(C)c1ccc(/C=C2/SC(=S)NC2=O)cc1`?
Answer: survivor count [4]: 6 of 6; survivor count (dose: 400.0 mg/kg/injection, schedule: Q01DX005 (ip), vehicle: saline with Tween-80): 6 of 6

Question: Which survivor count (dose: 25.0 mg/kg/injection, schedule: Q01DX009 (ip), vehicle: Klucel (hydroxypropylcellulose) (HPC)) does the source give for `CCCCCCCCCCCCCCCC[N+]1(CC)CCOCC1` (tested in a mixture with another compound) here?
Answer: Its survivor count is 6 of 6.

Question: What does the source list for `O=C(Nc1ccc(NC2=NCCN2)cc1)c1cccc(C(=O)Nc2ccc(NC3=NCCN3)cc2)c1`?
Answer: T/C (dose: 10.0 mg/kg/injection, schedule: Q01DX009 (ip), vehicle: saline with Tween-80): 127 % of control; T/C (dose: 13.2 mg/kg/injection, schedule: Q01DX009 (ip), vehicle: saline with Tween-80): 127 % of control [5 of 6 alive]; T/C (dose: 20.0 mg/kg/injection, schedule: Q01DX009 (ip), vehicle: saline with Tween-80): 136 and 140 % of control

Question: Which survivor count (dose: 40.0 mg/kg/injection, schedule: Q04DX003 (ip), vehicle: saline) does the source give for `Brc1ccc2c(c1)-c1ccccc1C1=NCCN12` here?
Answer: The survivor count was 1 of 6.

Question: What about the survivor count (dose: 80.0 mg/kg/injection, schedule: Q04DX003 (ip), vehicle: saline) of the same compound?
Answer: Its survivor count is 0 of 6.

Question: `COc1cccc(-c2nnc(-c3nc[nH]c3C)o2)c1` was tested. Which survivor count (dose: 400.0 mg/kg/injection, schedule: Q04DX002 (ip), vehicle: Klucel (hydroxypropylcellulose) (HPC)) did it give?
Answer: The survivor count was 2 of 6.

Question: How did the survivor count (dose: 30.0 mg/kg/injection, schedule: Q01DX005 (ip), vehicle: saline with Tween-80) turn out when `O=C(NCCCl)N1CCC(CN=c2cc3n(-c4ccc(Cl)cc4)c4ccccc4nc-3cc2Nc2ccc(Cl)cc2)CC1` was run?
Answer: Its survivor count is 6 of 6.

Question: What about the survivor count [12] of the same compound?
Answer: The survivor count was 6 of 6.

Question: `C=CC(CO)N1CC1` (centres undefined) was tested. Which survivor count (dose: 6.25 mg/kg/injection, schedule: Q01DX009 (ip), vehicle: saline) did it give?
Answer: The survivor count was 6 of 6.

Question: And the survivor count (dose: 12.5 mg/kg/injection, schedule: Q01DX009 (ip), vehicle: saline)?
Answer: Its survivor count is 6 of 6.

Question: And the survivor count (dose: 100.0 mg/kg/injection, schedule: Q04DX003 (ip), vehicle: saline with Tween-80)?
Answer: Its survivor count is 0 of 6.

Question: What about the survivor count [10] of the same compound?
Answer: Its survivor count is 0 of 6.

Question: What about the survivor count [11] of the same compound?
Answer: Its survivor count is 0 of 6.

Question: With `CC(=O)OCC1OC([S][Sb]([CH3])[CH3])C(OC(C)=O)C(OC(C)=O)C1OC(C)=O` (centres undefined) as the compound, how does the T/C [12] read?
Answer: The T/C was 128 % of control.

Question: What about the survivor count (dose: 120.0 mg/kg/injection, schedule: Q01DX005 (ip), vehicle: saline with Tween-80) of the same compound?
Answer: Its survivor count is 1 of 6.

Question: What about the survivor count (dose: 240.0 mg/kg/injection, schedule: Q01DX005 (ip), vehicle: saline with Tween-80) of the same compound?
Answer: The survivor count was 0 of 6.

Question: Which T/C (dose: 18.75 mg/kg/injection, schedule: Q01DX009 (ip), vehicle: saline) does the source give for `NC(N)=NO` here?
Answer: The T/C was 130 % of control.

Question: What about the T/C (dose: 37.5 mg/kg/injection, schedule: Q01DX009 (ip), vehicle: saline) of the same compound?
Answer: The T/C was 140 % of control.

Question: And the survivor count (dose: 300.0 mg/kg/injection, schedule: Q01DX009 (ip), vehicle: saline)?
Answer: The survivor count was 10 of 10.

Question: What about the survivor count (dose: 600.0 mg/kg/injection, schedule: Q01DX009 (ip), vehicle: saline) of the same compound?
Answer: The survivor count was 1 of 10.

Question: Which survivor count (dose: 25.0 mg/kg/injection, schedule: Q01DX009 (ip), vehicle: saline with Tween-80) does the source give for `O=C1C2CC=CCC2C(=O)N1SC(Cl)(Cl)Cl` (centres undefined) here?
Answer: The survivor count was 1 of 6.

Question: And the survivor count [8]?
Answer: The survivor count was 0 of 6.

Question: And the survivor count [9]?
Answer: The survivor count was 0 of 6.

Question: And the survivor count (dose: 200.0 mg/kg/injection, schedule: Q01DX009 (ip), vehicle: saline with Tween-80)?
Answer: The survivor count was 0 of 6.

Question: Which survivor count (dose: 300.0 mg/kg/injection, schedule: Q01DX009 (ip), vehicle: other) does the source give for `CCCCCCCCCC(O)CCCCCC` (centres undefined) here?
Answer: Its survivor count is 2 of 6.

Question: What does the source list for `COc1ccc(OC)c(C2=CC(=O)C=CC2=O)c1`?
Answer: survivor count [2]: 2 of 6; survivor count [3]: 0 of 6; survivor count [4]: 0 of 6
